The supplement of paper PMC3334620
Whole data set: some 33,000 sequences, median “E-score (-0.5 to 0.5)” near -0.0034, cut for the highest 2% near 0.25. Some of the results follow.

The sequences below were run against T1, Yap3 (UniProt P38749) (assay: PBM E-score (8-mer binding enrichment) (E-score (-0.5 to 0.5)); higher = stronger / more preferred TF binding). Conditions: protein concentration: 100 nM; construct: GST-full length.
T1 sequence: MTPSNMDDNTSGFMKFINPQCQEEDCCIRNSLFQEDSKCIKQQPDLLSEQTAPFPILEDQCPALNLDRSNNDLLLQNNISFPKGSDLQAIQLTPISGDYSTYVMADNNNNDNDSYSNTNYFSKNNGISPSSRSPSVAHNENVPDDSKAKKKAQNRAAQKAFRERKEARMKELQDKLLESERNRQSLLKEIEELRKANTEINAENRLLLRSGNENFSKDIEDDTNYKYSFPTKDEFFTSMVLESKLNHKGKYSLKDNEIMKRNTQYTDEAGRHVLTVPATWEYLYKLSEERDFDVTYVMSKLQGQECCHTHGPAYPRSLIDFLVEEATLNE
Outline: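 Yeast transcription factors, full-length or as DNA-binding domains, were expressed with a GST tag using PURExpress in vitro transcription/translation. At about 100-200 nM they were applied to universal all-10-mer Agilent arrays, double-stranded by primer extension on fresh or once-stripped slides. Fluorescent anti-GST detected bound protein, and masliner normalised the scans. E-scores for ungapped eight-base words, pooled with reverse complements, came from the Universal PBM Analysis Suite.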

Sequence	PBM E-score
ATTTTTCA	0.0522
ATGCTTGG	0.0354
CTACGAGA	0.0168
ATCGATCC	-0.0338
CATGCGCG	0.101
AGGAATTA	0.203
CGATCAAA	-0.021
TAACCGCA	0.236
CCTCCCCG	-0.0854
CATAGCGG	-0.25
ATTTCCTC	0.00861
CGCTCTGC	-0.126
AACTCGTA	0.214
CGAGCAGA	-0.165
CGAGAAAG	0.103
AAGTTTGC	0.169
ATCATGGA	-0.0169
AACGCACA	0.139
GCCGCGGC	0.225
ATTTTCAG	0.286
TCGACAAA	0.181
GCTAGCCC	-0.186
ATCCTCTA	-0.134
GGTAAGAA	-0.0371
AACCGAGA	0.106

Part of the list above in another layout.
Sequence | PBM E-score
CATGCGCG | 0.101
TAACCGCA | 0.236
TCGACAAA | 0.181

Additional entries follow:

Sequence	PBM E-score
AGTAATGC	0.13
CTCCCCAC	-0.17
CTAGCGGA	-0.135
GTAAACCA	0.133
CACGCGGG	-0.121
CGAGGCTC	-0.184
ATTCGTAG	-0.0186
ACCTTACG	0.178
GGATATTA	0.0994
CAACTCAG	-0.162
AGATGCAT	0.03
CATGATGC	0.0141
AACGTCGG	-0.0805
ATAGCTTA	-0.0587
ATGGCTAG	-0.03
CCGTGCGC	-0.0466
CGTGTGCC	-0.15
GCAGCCCC	-0.281
ATGGCGCG	-0.0449
AGGAGACC	-0.0804
AGTCAGCG	-0.0344
GAACCACC	-0.0554
GTGCAAAA	0.0965
ATCCAGAG	0.0894
GTCGGAGA	-0.245

Reformatted: results already given
Sequence | PBM E-score
ATCCTCTA | -0.134
CTCCCCAC | -0.17
GAACCACC | -0.0554

Carrying on:

Sequence	PBM E-score
ACTGCTGC	-0.0152
TCGCAAGA	-0.0427
TCCCCTAA	0.0799
CTTGACGC	-0.161
CTTTTGCA	0.227
ACCAATAA	0.0717
CTGCGTAA	0.0826
CACCCAAA	0.0709
AAATTCAG	0.123
CCATAGGA	-0.183
TCCAGGAA	-0.0178
AACGCTGG	-0.0798
ACGTATTC	0.123
AGCCGAAT	0.00799
AGGTACGC	-0.0272
GCTTCGCC	-0.388
CCTTATCG	0.0724
AAGTCAGG	0.0833
TACGTACA	0.197
ACTTGCGG	-0.12
ACCAGCTG	-0.0597
CAGGTATA	0.00623
AAGATAGA	0.122
CATATCAA	0.275
CGCTAGGC	-0.153

Sequence	PBM E-score
GGCCCCAA	-0.195
ACGCATAC	0.035
ACCGTCGC	0.0385
ACCTGTGG	-0.219
CTATTGCA	0.0522
CGCAGTCA	-0.0843
ACATGACT	-0.0255
CAGACTAG	-0.204
CCATCGAA	0.0374
CACCAGTG	-0.153
ACGGCTGC	-0.269
CTCAGGAG	-0.141
AGAGTGGG	-0.0739
ACTTCCGC	0.0174
ATAATCGA	0.0902
CAGTTGGG	-0.0888
CAGTTCCC	-0.134
AGTTTCAC	-0.0173
CGCTGGAC	-0.214
CGGAGGGC	-0.241
ACATTAAT	0.122
CTTCAATC	-0.0554
TCCGACGA	0.0438
TGCGTCAA	0.0343
CAATTCCC	0.0681

Quoted at random: three entries already listed, in no set order.
Sequence	PBM E-score
CACCCAAA	0.0709
CCATAGGA	-0.183
GGCCCCAA	-0.195

The results go on:

Sequence	PBM E-score
CATTGCAC	0.131
AACCTAGC	0.0358
CCGTTGGA	-0.226
AGAGAGAG	-0.146
GATTGTCA	0.0887
ATAACCCA	0.0269
AAGCTGTA	0.189
ATTGAGCA	0.105
GTACAAGA	0.0226
AGCTGTTA	0.0511
CAAATAGA	0.234
CTCCTAGA	-0.141
AGAACCCT	-0.224
AAAATGAC	0.13
ACCCTCGA	-0.182
CGTACCAA	0.21
CTCTGTGA	-0.0518
AAACAGCG	0.2
GTGGACGA	-0.00243
ACCACGAA	-0.0824
ACGTGATG	0.134
ATCCGAAC	0.0611
AGCTTTCC	-0.0722
AGAGCCGA	-0.0137
CTAGTACA	0.0825

Sequence	PBM E-score
GGCTATTA	0.089
AGGTGAGA	0.0969
AAATACTG	0.109
ACTGCGCG	0.0476
AGGGAAGA	-0.109
AGCCGTCG	0.0233
CATACGGG	-0.177
CAAGTATA	-0.0229
CACGGAGG	-0.0561
CTCACTGC	-0.153
AGGAAAAC	-0.0628
ATGGCAGC	-0.042
ATGGATAA	0.131
CATGTAGG	-0.0745
AGGGAATC	0.0631
ATAACGAT	0.109
GACTATTA	0.0619
TTTAAAAA	0.0194
GATGAACC	-0.0269
ATAGTCCG	-0.00665
GATGGGCC	-0.31
CGAACAAC	0.253
ATAATACA	0.357
CGTCAGCC	-0.0455
AGTCATAG	0.0107

Sequence	PBM E-score
TGAACACA	-0.0712
GATGGCTA	0.0169
TAAGAGAA	0.0173
AGGCTAGC	-0.0851
AGTTCTAG	-0.101
CCCTTTCG	-0.0948
AACTTCAC	0.114
AAAGACAC	0.0953
ATACTACC	0.0377
AACTGGGG	-0.0749
CAGCCAAG	-0.111
ATGTAACG	0.164
AGAACTTA	0.0979
AATTCCCA	0.115
GTTAGAGA	-0.183
CTCTACTC	0.0355
AAACTAGA	-0.036
AGACCATG	-0.238
CTTTCGAA	-0.0968
ATAGGTAC	0.0413
ACCTAGGG	-0.0254
AGATGGTA	0.133
CACGGGTA	-0.0576
CAAGGGAC	-0.0565
AAACGTAA	0.24

Sequence	PBM E-score
ATATCACA	0.0519
ACCCTTAG	-0.161
ATCGTTCC	-0.0403
TATTCAGA	0.11
AGCGTCTG	-0.159
GCGGGACA	-0.117
AGTTACAT	0.0747
CGTGGCGC	-0.221
CTGCTAAA	0.0134
AAAGGATG	0.092
AAAAAGCA	0.127
GAGTTCAC	-0.0826
TACCAATA	0.132
TCACTACA	0.127
CCCCCTAA	-0.291
AAAGTCAC	0.117
CCACATAG	0.0179
AAACGAAT	0.18
AGAACGAC	0.0859
CTTAGCGC	0.171
CAGTAAGG	-0.0314
TCGGATCA	0.0489
CTCCTGAC	0.00138
CGCTCGAC	-0.146
CAGGTATG	0.13

Sequence	PBM E-score
AGTATTGG	0.00423
ACCGTGCT	-0.295
GGACCGCC	-0.348
GTCGGTCA	-0.0651
CACGAGAC	-0.0708
CCGAACTA	0.0209
ATTCAGAG	0.0415
CGTATCAG	0.00689
AGAATCGA	0.0567
ACGCCTAG	-0.0426
AAACGGTT	-0.141
CGGGTCAC	-0.134
AAAGTCCG	-0.0247
AACTTGGT	0.117
ACCTCCAT	-0.182
CCCGTTCG	-0.0649
AGACTGAA	-0.0205
TAACGTAA	0.242
ATCCAGCC	-0.144
CTTATGTA	0.216
ACACGCGA	0.0551
CCCGGACA	-0.0536
TAGATTCA	-0.175
GTGCCGTA	0.033
GGTACGCA	0.0349

Sequence	PBM E-score
CAACTAGC	0.14
GTGCGTCA	-0.0417
CTTTTAAC	0.0122
CGGACAGA	-0.0317
CCTATTAA	0.0368
AATATGAC	0.223
AGCCAATG	-0.0551
ACCGTTAG	0.0694
CTCTCAGA	-0.117
ACTCGTGG	-0.0605
CAGATAAC	0.0953
AATTATTG	0.195
GAGGAGGA	-0.253
CCCTGCCG	-0.28
GTGTCGTA	0.111
ACCGGTAA	-0.0317
GTGAGAAA	0.0709
CCGCCAAC	-0.142
CCACGGGG	-0.418
AAACAACC	0.078
GTTAGAAA	0.0327
AAAGAGTT	0.0207
GCCGTACA	0.0668
CCCGCATA	0.168
CTTAAGCA	-0.0399

Sequence	PBM E-score
ATTTCTGC	0.231
AGAGAGGA	-0.261
CACCGCTC	-0.0925
CAGTAGTC	-0.245
GTCGAACA	0.0887
ACTTTGAA	0.0353
ACTTAGCG	0.161
AGGCAAAC	-0.027
ATCACCAC	0.138
ATAAGGGC	0.112
GGAGTGAC	-0.0383
CAGAGAGG	-0.208
CCTTCTCG	-0.134
GTGCACGA	0.0909
ATGATATG	0.253
ACACAGTA	-0.0354
ATTTGACC	0.0587
ACCATGAC	0.147
AAGTCTAG	-0.231
GCGGAAAA	0.245
GCACCTGA	-0.0023
GCAAGGAC	-0.15
AAGACAAC	0.267
AGATGAGA	-0.021
AATCTAAA	0.101

Sequence	PBM E-score
CTGATATC	0.0122
AACGATGG	0.0615
ACAGAACT	0.0358
ACCCTGAT	-0.119
AGGAGTCC	-0.276
ATGGGTGC	-0.0138
CTTCGTGA	0.034
CAACCGAC	0.185
CTGCACAA	0.00617
AGCACACA	-0.0965
AGGATCTC	-0.103
AAACACTC	0.0568
CTGTTCCA	-0.0015
AAGCAGGC	-0.251
TCTGCACA	-0.00606
GACTGTTA	-0.00308
CCGAGTTA	-0.0387
ATCATCCG	-0.162
TCGGCACA	-0.0859
ACCCGGCT	-0.186
GACGGCCC	-0.253
CCTGCGCG	-0.0131
CCGCCTCA	-0.248
AGAAGGGG	-0.259
CATCCTTA	-0.00117

Sequence	PBM E-score
GAAATCTC	-0.052
GGCCGTCA	-0.164
ATTGACTA	0.0294
CCAGGGAG	-0.292
CTCTTGGA	-0.0892
GTCTCCCA	-0.175
ATTTGATG	0.106
CCACCATA	-0.033
ACGCTCTG	-0.186
ACATTCAC	0.147
CGAAGATA	0.194
ACGTTAAC	0.109
ACGTCGGA	-0.085
ACAGCTGA	-0.116
AGAATTAT	0.197
ACCAACCC	-0.124
CGCGCCGC	-0.0149
CATGGACG	-0.0677
CTGTGCCA	-0.119
CGCTCCCG	-0.104
GGAGCTGA	-0.203
AGTCGGGC	-0.0272
ACTGCTCC	-0.0513
AAGTCACC	-0.032
CTAAGCTA	0.0576

Sequence	PBM E-score
AACGCGTG	0.019
CTTAAAAA	0.0828
AGGTTCAG	-0.0303
CTTCCTCC	-0.358
GATGGTCA	-0.144
CCGAACGC	0.0206
ACACGAGG	-0.0923
AAATCAGG	-0.00912
CCAGAGGA	-0.18
AAGGGTAA	-0.0358
GAATGGAA	0.131
GGATCGGA	-0.033
CCTCCGAG	-0.174
TGCAAGAA	0.157
CTTAGATC	-0.0222
CTGAACAA	0.172
CGAAATCG	0.125
CCTGATGC	-0.00412
AACCCATT	0.16
